Data from PubChem BioAssay AID504467 (National Center for Advancing Translational Sciences (NCATS), 2011).
Screen size: about 330,000 compounds; about 7,700 (2.3%) were called active. This list was built around the results that the source calls inconclusive (neither active nor inactive); the mix of calls is not that of the screen. Calls follow the shape of the dose curve; as a rule, active = well fitted inhibition curve with a large enough effect; inconclusive = small, poorly fitted or top-dose-only effect, or effect the other way; inactive = flat fitted curve, though single readings scatter. A potency beside an inconclusive call is a rough fit, not a confirmed value.

Assay: qHTS screen for small molecules that inhibit ELG1-dependent DNA repair in human embryonic kidney (HEK293T) cells expressing luciferase-tagged ELG1; also: nearly all actives have a fitted effect of over 55% in size
Settings: HEK293T ELG1-luciferase reporter, luminescence, 16 h, DNA damage induced by 5-fluorouridine; activity change, negative = inhibition: at 46.1 µM (top of the series)
Outline: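 DMSO vehicle served as the neutral condition. Each well held 2,000 cells given 5-fluorouridine plus compound; after 16 hr at 37 °C/5% CO2, ONE-Glo was added and luciferase measured 30 min later.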
% is scaled to controls: 0 for no effect and ±100 for the full control effect; potency is read from the fitted curve at half-maximal effect.

Row | SMILES | activity change, negative = inhibition | Potency
1 | CCC[C@@H](CN1CCC[C@H]1CN1C(N)=NC[C@H]1C(C)C)N1C[C@@H]([C@H](C)CC)N(CCCC2CCCC2)C1=N | inactive: 15.1% | 
2 | CCCn1nc(C(=O)NNC(=O)Cc2ccc(S(=O)(=O)N3CCOCC3)s2)c2ccccc2c1=O |  | inconclusive: 20.6 µM [inhibitor, single point]
3 | O=C1C2CCCN2C(=O)N1CCCN1CCN(c2cccc(Br)c2)CC1 (centres undefined) | inactive: -7.16% | 
4 | Cc1cccc(/C=N\NC(=O)c2csnn2)c1 |  | inconclusive: 23.1 µM [activator, partial curve]
5 | N#Cc1c(SCC(=O)Nc2ccccc2C(F)(F)F)sc2c(O)cc(=O)[nH]c12 | inactive: 3.55% | 
6 | CCOC(=O)C1=C(C)Nc2nc(=S)[nH]n2C1c1ccc(Cl)cc1 (centres undefined) |  | inconclusive: 2.31 µM [activator, partial curve]
7 | CCOC(=O)c1ccc(NC(=O)COC(=O)Cc2csc(-c3ccccc3)n2)cc1 |  | inconclusive: 29.1 µM [activator, single point]
8 | CCC(OC(=O)C(NC(=O)c1ccccc1)c1ccccc1)C(=O)Nc1cc(C)on1 (centres undefined) |  | inconclusive: 29.1 µM [inhibitor, single point]
9 | CC(C)(C)c1cc(NC(=O)c2cccc([N+](=O)[O-])c2)no1 |  | inconclusive: 4.11 µM [activator, full curve]
10 | CCN1CCN(CC(=O)N2CCCC(C(=O)c3ccc(Oc4ccccc4)cc3)C2)CC1 (centres undefined) |  | inconclusive: 16.4 µM [activator, partial curve]
11 | O=C(N/N=C/c1ccc(OC(=O)c2ccc([N+](=O)[O-])cc2)cc1)c1cccnc1 | inactive: 4.9% | 
12 | CCC(C)(C)n1nnnc1C(c1ccccc1OC)N1CCSCC1 (centres undefined) | inactive: 0.736% | 
13 | O=C(/C=C/c1ccc2ccccc2n1)c1cc(Br)ccc1O |  | inconclusive: 29.1 µM [activator, single point]
14 | Clc1ccccc1OCc1nnc2n1CCCCC2 |  | inconclusive: 29.1 µM [activator, partial curve, poor fit]
15 | COc1cc(/C=N\NC(=O)CNC(=O)C2COc3ccccc3O2)ccc1O (centres undefined) | inactive: 0.469% | 
16 | COc1cccc(NC(=O)CSc2nnc(Cc3cccs3)n2-c2ccc(C)cc2)c1 |  | inconclusive: 20.6 µM [inhibitor, single point]
17 | CCC(C)(C)n1nnnc1CN1CCN(c2nc3cc(OC)ccc3cc2C#N)CC1 |  | inconclusive: 23.1 µM [inhibitor, single point]
18 | COc1ccc(NC(=O)CN2CCC3(O)CCCCC3C2c2ccccc2OC)cc1 (centres undefined) |  | inconclusive: 23.1 µM [inhibitor, single point]
19 | NNC(=O)c1ccc(COc2ccc3ccccc3c2)cc1 |  | inconclusive: 6.51 µM [activator, single point]

An excerpt from above in order of SMILES length, ascending:
Row | SMILES | activity change, negative = inhibition | Potency
19 | NNC(=O)c1ccc(COc2ccc3ccccc3c2)cc1 |  | inconclusive: 6.51 µM [activator, single point]
6 | CCOC(=O)C1=C(C)Nc2nc(=S)[nH]n2C1c1ccc(Cl)cc1 (centres undefined) |  | inconclusive: 2.31 µM [activator, partial curve]
9 | CC(C)(C)c1cc(NC(=O)c2cccc([N+](=O)[O-])c2)no1 |  | inconclusive: 4.11 µM [activator, full curve]
18 | COc1ccc(NC(=O)CN2CCC3(O)CCCCC3C2c2ccccc2OC)cc1 (centres undefined) |  | inconclusive: 23.1 µM [inhibitor, single point]
17 | CCC(C)(C)n1nnnc1CN1CCN(c2nc3cc(OC)ccc3cc2C#N)CC1 |  | inconclusive: 23.1 µM [inhibitor, single point]
16 | COc1cccc(NC(=O)CSc2nnc(Cc3cccs3)n2-c2ccc(C)cc2)c1 |  | inconclusive: 20.6 µM [inhibitor, single point]
